Source: the supplement of paper PMC10849652
This is one part of the list.

Protein sequences, listed by entry. Tags and fused reporters are not part of them. Lines headed by an entry give the natural chain unless they say otherwise; changes in a name come on top.
UniProt Q6QEF8, whole entry, looked up: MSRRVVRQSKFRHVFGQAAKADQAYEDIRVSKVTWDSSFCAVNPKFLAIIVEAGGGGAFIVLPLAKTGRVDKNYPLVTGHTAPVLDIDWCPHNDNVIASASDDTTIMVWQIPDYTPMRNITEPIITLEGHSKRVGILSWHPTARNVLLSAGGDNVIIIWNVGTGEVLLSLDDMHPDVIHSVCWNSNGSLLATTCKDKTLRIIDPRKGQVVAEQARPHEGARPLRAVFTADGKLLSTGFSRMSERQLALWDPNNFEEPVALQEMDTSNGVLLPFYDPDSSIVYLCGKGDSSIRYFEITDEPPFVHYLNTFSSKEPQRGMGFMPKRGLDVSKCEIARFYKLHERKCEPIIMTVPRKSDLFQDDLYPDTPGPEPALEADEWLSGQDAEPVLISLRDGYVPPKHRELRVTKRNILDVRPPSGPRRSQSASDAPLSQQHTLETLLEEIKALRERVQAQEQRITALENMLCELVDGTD
UniProt Q9H9Q2: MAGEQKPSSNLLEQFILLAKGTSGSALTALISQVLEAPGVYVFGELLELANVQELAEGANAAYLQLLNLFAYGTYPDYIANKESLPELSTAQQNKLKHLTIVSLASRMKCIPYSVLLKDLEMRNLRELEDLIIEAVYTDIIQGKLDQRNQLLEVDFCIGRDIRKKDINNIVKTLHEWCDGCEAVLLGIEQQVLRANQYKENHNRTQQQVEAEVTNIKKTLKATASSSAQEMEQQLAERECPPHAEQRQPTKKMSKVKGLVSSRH
UniProt Q9Y678: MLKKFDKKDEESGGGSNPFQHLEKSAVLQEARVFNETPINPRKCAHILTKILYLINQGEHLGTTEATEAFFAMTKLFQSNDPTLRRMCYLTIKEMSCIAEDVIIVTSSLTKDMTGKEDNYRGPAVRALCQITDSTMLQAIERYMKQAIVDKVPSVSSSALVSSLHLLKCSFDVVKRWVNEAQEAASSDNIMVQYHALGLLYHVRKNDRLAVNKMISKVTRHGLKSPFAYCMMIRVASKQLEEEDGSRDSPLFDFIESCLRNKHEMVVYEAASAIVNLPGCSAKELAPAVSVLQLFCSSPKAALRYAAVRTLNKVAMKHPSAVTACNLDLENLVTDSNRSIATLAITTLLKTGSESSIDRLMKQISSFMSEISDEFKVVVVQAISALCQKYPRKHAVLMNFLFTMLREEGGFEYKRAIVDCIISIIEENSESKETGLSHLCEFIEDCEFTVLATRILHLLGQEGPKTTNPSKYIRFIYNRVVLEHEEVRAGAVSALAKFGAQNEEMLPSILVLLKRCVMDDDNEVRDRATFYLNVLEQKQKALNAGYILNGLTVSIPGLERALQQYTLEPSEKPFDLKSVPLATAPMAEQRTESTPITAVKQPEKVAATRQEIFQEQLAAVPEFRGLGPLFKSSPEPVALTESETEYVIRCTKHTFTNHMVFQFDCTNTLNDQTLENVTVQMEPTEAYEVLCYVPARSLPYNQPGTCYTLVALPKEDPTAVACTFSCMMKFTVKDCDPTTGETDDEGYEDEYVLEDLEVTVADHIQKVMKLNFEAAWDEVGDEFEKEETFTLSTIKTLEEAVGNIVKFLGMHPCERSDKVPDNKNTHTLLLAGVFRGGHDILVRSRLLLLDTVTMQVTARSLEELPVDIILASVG
UniProt Q5TA50: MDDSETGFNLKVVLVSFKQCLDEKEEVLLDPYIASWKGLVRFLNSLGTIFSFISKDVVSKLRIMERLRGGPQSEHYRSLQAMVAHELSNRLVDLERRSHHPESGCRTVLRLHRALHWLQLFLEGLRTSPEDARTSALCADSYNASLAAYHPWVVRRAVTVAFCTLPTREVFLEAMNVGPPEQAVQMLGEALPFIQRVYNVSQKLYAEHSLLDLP
UniProt P12074, whole entry, looked up: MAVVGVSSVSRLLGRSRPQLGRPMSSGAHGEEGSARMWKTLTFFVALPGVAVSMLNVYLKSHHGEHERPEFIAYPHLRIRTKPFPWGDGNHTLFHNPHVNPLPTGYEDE
UniProt P12109: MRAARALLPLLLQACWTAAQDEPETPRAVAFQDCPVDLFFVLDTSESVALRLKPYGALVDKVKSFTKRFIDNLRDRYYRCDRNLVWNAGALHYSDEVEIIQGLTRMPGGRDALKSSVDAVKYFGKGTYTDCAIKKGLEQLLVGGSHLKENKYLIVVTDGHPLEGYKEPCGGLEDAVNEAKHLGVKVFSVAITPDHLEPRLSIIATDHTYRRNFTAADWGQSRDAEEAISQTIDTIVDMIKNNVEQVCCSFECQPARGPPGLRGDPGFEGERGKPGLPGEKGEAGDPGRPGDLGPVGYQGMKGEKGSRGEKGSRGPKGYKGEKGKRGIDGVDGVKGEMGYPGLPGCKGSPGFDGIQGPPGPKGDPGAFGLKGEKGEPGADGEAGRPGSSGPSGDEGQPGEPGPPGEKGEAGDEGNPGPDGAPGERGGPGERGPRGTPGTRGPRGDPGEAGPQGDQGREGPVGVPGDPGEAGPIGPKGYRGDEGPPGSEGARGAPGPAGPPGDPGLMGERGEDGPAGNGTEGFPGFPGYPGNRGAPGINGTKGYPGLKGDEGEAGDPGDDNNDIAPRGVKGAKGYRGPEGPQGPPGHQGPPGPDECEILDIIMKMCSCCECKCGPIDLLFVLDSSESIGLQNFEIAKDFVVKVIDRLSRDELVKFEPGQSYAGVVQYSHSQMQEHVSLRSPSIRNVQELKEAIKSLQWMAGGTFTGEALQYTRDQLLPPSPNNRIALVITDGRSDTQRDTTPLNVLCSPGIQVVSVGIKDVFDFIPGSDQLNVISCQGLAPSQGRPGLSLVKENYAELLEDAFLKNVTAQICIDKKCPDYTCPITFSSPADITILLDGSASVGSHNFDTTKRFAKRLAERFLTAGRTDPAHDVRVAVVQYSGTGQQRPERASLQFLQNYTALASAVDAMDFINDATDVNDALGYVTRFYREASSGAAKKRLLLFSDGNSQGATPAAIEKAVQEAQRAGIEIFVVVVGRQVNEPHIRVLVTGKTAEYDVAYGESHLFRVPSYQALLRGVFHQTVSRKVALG
UniProt Q9H8M5: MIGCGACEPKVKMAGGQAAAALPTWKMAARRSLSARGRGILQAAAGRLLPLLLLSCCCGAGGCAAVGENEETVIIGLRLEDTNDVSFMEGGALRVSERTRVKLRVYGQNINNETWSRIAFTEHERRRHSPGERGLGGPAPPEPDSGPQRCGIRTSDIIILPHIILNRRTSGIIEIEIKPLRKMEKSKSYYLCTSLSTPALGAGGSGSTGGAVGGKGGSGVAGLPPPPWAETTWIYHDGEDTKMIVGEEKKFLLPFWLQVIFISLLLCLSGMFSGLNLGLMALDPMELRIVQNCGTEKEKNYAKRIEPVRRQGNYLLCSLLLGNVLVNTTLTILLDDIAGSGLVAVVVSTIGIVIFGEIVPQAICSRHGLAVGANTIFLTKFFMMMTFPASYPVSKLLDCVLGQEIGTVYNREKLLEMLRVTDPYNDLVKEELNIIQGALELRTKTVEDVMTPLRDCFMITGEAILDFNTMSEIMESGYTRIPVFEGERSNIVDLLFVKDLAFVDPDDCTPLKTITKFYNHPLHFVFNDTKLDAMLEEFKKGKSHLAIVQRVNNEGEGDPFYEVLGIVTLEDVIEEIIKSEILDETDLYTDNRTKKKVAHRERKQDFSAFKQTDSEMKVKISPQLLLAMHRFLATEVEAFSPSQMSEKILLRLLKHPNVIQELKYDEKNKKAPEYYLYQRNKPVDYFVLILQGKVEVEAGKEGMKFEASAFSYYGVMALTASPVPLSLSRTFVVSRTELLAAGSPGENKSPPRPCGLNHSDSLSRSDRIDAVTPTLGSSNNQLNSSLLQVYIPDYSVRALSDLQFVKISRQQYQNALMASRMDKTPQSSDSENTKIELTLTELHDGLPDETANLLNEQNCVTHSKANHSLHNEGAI
UniProt Q8N137: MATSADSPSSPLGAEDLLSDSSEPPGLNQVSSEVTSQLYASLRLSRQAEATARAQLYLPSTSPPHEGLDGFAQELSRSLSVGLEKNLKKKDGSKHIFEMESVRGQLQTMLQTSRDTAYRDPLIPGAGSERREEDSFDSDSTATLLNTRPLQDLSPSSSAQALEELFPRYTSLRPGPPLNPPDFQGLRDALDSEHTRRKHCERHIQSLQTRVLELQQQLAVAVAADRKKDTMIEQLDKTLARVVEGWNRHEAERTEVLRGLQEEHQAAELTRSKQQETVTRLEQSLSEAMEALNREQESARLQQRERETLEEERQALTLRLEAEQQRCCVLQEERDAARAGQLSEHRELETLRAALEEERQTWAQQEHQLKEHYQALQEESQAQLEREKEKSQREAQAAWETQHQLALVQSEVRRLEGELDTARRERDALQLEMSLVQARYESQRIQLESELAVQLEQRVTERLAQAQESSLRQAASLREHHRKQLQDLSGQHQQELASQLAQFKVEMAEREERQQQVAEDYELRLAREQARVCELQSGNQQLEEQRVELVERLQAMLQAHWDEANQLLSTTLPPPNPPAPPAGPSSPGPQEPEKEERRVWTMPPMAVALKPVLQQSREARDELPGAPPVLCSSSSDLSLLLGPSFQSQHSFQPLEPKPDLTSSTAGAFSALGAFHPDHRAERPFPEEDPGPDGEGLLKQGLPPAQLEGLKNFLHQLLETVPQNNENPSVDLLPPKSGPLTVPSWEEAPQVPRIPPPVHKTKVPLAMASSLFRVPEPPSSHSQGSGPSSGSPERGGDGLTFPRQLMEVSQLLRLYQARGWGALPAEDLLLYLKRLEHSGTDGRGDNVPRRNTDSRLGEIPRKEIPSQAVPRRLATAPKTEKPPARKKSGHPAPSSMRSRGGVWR
UniProt Q16630, whole entry, looked up: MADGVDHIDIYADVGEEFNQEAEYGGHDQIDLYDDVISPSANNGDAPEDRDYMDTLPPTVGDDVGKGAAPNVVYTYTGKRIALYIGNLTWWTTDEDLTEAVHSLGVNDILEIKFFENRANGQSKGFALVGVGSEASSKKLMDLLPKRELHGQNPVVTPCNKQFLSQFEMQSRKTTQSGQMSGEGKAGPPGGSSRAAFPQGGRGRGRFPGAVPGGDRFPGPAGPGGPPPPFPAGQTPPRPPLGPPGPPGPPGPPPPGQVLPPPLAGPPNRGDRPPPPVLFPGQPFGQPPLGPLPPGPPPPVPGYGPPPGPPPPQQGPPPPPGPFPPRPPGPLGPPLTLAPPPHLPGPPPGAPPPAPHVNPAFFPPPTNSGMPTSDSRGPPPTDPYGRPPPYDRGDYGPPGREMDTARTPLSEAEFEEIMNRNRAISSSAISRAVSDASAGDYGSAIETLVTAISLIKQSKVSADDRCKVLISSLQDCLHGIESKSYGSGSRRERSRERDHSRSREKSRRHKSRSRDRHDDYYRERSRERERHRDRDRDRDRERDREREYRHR
UniProt Q9UFF9, whole entry, looked up: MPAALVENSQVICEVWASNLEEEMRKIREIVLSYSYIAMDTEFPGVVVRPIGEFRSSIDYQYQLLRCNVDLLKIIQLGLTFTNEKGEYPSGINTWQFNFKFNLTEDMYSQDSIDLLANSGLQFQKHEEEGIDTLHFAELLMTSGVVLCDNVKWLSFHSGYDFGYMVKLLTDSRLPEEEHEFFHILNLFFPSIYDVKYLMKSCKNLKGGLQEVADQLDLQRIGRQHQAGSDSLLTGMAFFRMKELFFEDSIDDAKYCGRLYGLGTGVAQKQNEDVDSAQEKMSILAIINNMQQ
UniProt Q9H9E3: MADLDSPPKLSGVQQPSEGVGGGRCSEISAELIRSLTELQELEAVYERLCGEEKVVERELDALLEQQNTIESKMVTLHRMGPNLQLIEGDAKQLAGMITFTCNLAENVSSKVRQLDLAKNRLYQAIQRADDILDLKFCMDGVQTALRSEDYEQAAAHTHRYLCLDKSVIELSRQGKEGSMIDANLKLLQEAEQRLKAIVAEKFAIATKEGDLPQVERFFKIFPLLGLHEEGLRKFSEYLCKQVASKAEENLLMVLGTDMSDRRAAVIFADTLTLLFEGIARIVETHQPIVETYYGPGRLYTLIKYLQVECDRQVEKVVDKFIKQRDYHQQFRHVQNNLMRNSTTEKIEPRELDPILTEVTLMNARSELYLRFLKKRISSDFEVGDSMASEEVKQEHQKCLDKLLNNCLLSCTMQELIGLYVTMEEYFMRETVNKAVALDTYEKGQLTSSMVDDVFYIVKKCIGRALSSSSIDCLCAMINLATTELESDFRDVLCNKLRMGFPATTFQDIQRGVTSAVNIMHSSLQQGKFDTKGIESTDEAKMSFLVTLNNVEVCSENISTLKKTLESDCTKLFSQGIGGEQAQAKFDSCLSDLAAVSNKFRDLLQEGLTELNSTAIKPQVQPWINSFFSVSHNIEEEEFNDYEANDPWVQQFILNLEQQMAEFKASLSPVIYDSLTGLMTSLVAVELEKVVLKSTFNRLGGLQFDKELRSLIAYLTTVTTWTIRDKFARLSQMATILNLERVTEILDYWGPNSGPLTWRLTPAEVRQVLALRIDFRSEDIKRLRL
UniProt P24311, whole entry, looked up: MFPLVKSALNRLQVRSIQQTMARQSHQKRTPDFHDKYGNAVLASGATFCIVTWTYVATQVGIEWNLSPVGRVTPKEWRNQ
UniProt P20674, whole entry, looked up: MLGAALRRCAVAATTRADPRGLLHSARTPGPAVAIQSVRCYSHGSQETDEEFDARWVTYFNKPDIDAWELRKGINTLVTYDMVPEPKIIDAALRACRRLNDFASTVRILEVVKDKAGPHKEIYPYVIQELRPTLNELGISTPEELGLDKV

Assays:
Assay in all cases: log2 fold change, soluble protein after heating vs DMSO (PISA); higher = thermal stabilisation; K562 lysate, 10 uM; active = over 0.2 and 3.5 SD of the protein, either way, in both replicates (recomputed)
[1] = compound: C1=CC=C(C=C1)[C@H](COC2=CC3=C(C=C2)NC(=O)N3)NC(=O)C4=CC=CN(C4=O)CC5=CC(=C(C=C5)F)F
Outline: (§1)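 A 30 min treatment with 10 μM compound was applied to crude K562 extract at 1 mg/mL protein in PBS pH 7.4 with 1 mM MgCl2. Heating for 3 min spanned 48°C-58°C, after which aliquots were pooled, adjusted to 0.5% NP-40 at 4°C and spun at 21,000xg for 90 min. TMTpro 16plex LC-MS/MS of the supernatant, with channel sums equalised, gave values recorded as log-two fold change in thermal stability against solvent controls, from duplicates.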

[2] = compound: CC1=C(SC2=C1C(=N[C@H](C3=NN=C(N32)C)CC(=O)N)C4=CC=C(C=C4)Cl)C
Outline: as §1

[3] = compound: c1ccc([C@@H]2C[C@H]2NC2CCNCC2)cc1
Outline: as §1

[4] = compound: Cc1sc2c(c1C)C(c1ccc(Cl)cc1)=N[C@@H](CC(=O)OC(C)(C)C)c1nnc(C)n1-2
Outline: as §1

[5] = compound: CC1=C2C(=CC=C1)N=C(N(C2=O)C3=CC=CC=C3C)CN4C=NC5=C(N=CN=C54)N
Outline: as §1

Measured: log2 fold change

CORO6 isoform 5 (UniProt Q6QEF8)
inactive: [1] -0.007 | [2] 0.083 | [3] 0.199

COPS2 (UniProt P61201)
inactive: [4] -0.039 | [3] 0.013

COPS3 isoform 2 (UniProt Q9UNS2)
inactive: [5] -0.052 | [3] -0.699

COX7A2 (UniProt P14406)
inactive: [1] -0.072 | [2] 0.05 | [5] 0.029 | [3] -0.016

Two entries picked at random from the list so far:
CORO6 isoform 5 (UniProt Q6QEF8)
inactive: [1] -0.007 | [2] 0.083 | [3] 0.199

COPS2 (UniProt P61201)
inactive: [4] -0.039 | [3] 0.013

Remaining list, next part.

COPS7B isoform 3 (UniProt Q9H9Q2)
inactive: [1] 0.032 | [2] -0.004 | [5] 0.012 | [4] -0.019 | [3] -0.154

CPA4 (UniProt Q9UI42)
inactive: [1] -0.151 | [2] 0.013 | [3] -0.042

COP1 (UniProt Q8NHY2)
inactive: [4] 0.021 | [3] 0.128

COPG1 (UniProt Q9Y678)
inactive: [1] -0.005 | [2] -0.004 | [5] 0.014 | [4] -0.011 | [3] 0.001

CPTP (UniProt Q5TA50)
inactive: [5] -0.098 | [4] -0.162 | [3] 0.146

COL6A3 (UniProt P12111)
inactive: [1] -0.008 | [2] -0.04 | [4] -0.079 | [3] 0.13

CPLX1 (UniProt O14810)
inactive: [5] -0.08 | [4] -0.239

CPNE2 (UniProt Q96FN4)
inactive: [1] -0.304 | [2] -0.236 | [4] -0.028 | [3] -0.035

COMMD6 isoform 2 (UniProt Q7Z4G1)
inactive: [1] 0.017 | [2] 0.069 | [4] 0.165 | [3] 0.061

COX6A1 (UniProt P12074)
inactive: [1] 0.097 | [2] -0.002 | [5] -0.06 | [4] -0.014 | [3] -0.048

COL6A1 (UniProt P12109)
inactive: [3] -0.014

CNNM1 (UniProt Q9NRU3)
inactive: [5] 0.003 | [4] 0.076

COX10 (UniProt Q12887)
inactive: [4] -0.169

COX17 (UniProt Q14061)
inactive: [3] 0.122

CNNM2 (UniProt Q9H8M5)
inactive: [5] 0.041 | [4] 0.034 | [3] 0.014

CNTROB isoform 2 (UniProt Q8N137)
inactive: [4] 0.08

CPSF6 isoform 2 (UniProt Q16630)
inactive: [1] -0.012 | [2] 0.007 | [5] -0.029 | [4] 0.011 | [3] 0.069

CNOT7 (UniProt H0YBT3)
inactive: [3] 0.122

CNOT8 (UniProt Q9UFF9)
inactive: [1] 0.007 | [2] -0.02 | [5] 0.022 | [4] -0.215 | [3] -0.014

COG4 (UniProt Q9H9E3)
inactive: [1] 0.005 | [2] 0.034 | [5] 0.096 | [4] -0.036 | [3] 0.011

CNOT6L (UniProt Q96LI5)
inactive: [1] -0.014 | [2] 0.017 | [5] -0.013 | [4] -0.049 | [3] -0.164

COMMD3-BMI1 (UniProt R4GMX3)
inactive: [1] 0.11 | [2] -0.446 | [4] -0.126

CRACR2B (UniProt Q8N4Y2)
inactive: [4] 0.057

COX7B (UniProt P24311)
inactive: [5] -0.031 | [4] -0.027 | [3] -0.075

COQ8B (UniProt Q96D53)
inactive: [3] 0.147

CORO7 (UniProt P57737)
inactive: [5] 0.18 | [4] 0.165 | [3] 0.164

COL1A1 (UniProt P02452)
inactive: [3] 0.145

COX11 (UniProt Q9Y6N1)
inactive: [1] 0.007 | [2] 0 | [5] -0.005 | [4] 0.005 | [3] 0.056

COX5A (UniProt P20674)
inactive: [1] 0.065 | [2] -0.03 | [5] -0.006 | [4] -0.017 | [3] 0.164

COQ3 (UniProt Q9NZJ6)
inactive: [1] 0.034 | [2] 0.025 | [5] -0.078 | [3] -0.048

COL12A1 (UniProt Q99715)
inactive: [5] 0.08 | [4] -0.078
